No constants are given. Whether binding was seen depends on the method and setting. In cells and extracts the contact can be indirect. Binding calls can cover weak binding; strength is not graded here. Sequences can lack the tags named with a protein.
Target: T1, CSEP0064/BEC1054 bait, C-terminally tagged with the C-terminal half of mYFP (Blumeria graminis f.sp. hordei) (UniProt N1JJ94)
T1 sequence: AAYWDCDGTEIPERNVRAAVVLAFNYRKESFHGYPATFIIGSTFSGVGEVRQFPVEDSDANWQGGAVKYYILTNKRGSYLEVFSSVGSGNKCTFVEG
Assay: split reporter

For “eukaryotic Elongation Factor 1 Alpha isoform 3 (eEF1α(3)), BiFC prey (barley (Hordeum vulgare))”, the binding was “no binding”.
For “malate dehydrogenase (MDH), BiFC prey (barley (Hordeum vulgare)) (enzyme)”, the binding was “no binding”.
With “Glutathione-S-Transferase (GST), C-terminally tagged with the N-terminal domain of mYFP (from UniProt A0A0U2I2F3) (enzyme)” the binding was “binds”.
With “ribosomal 40S subunit protein 16 (40S S16), BiFC prey (barley (Hordeum vulgare))” the binding was “no binding”.
